Target: T1, Aβ1–42 (Homo sapiens, UniProt P05067)
T1 construct: pre-treated Aβ1–42 (GL Biochem Ltd., Shanghai, China) was dissolved in DMSO; purchased GL Biochem Ltd., Shanghai, China
Assay: Inhibition of self-induced Aβ1–42 aggregation (ThT fluorescence)
Format: biochemical
Details: Aβ1–42 2.5 µM, compound 10 µM; mean ± SD of three experiments
Procedure: In order to investigate the inhibition of compounds on Aβ1–42 self-aggregation, a ThT-based fluorometric assay was performed. 1,1,1,3,3,3-hexafluoro-2-propanol (HFIP) pre-treated Aβ1–42 (GL Biochem Ltd., Shanghai, China) was dissolved in DMSO to make a 200 µM stock solution. The stock solution was centrifuged at the speed of 13,500 rpm for 10 min. The above supernatant was used for experiments. The tested compounds were dissolved in DMSO at concentrations of 0.8 mM. A screening assay for the tested compounds to inhibit A aggregation was performed by measuring ThT fluorescence emission. Compounds (2 µL) and 2 µL of 200 µM Aβ1–42 were added into 76 µL of phosphate-buffered saline (PBS at pH 7.4) in a 96-well plate. After incubation for 24 h at room temperature, 80 µL of 5 µM of ThT solution (in 50 mM of glycine-NaOH at pH 8.5) was added to the reaction solution. Fluorescence emission was measured at 490 nm with an excitation wavelength of 450 nm on a Tecan Spark multimode microplate reader. […] The fluorescence intensities were compared, and the % inhibition was calculated by the following equation: 100 − [(Fi − Fb)/(Fo − Fb) × 100], where Fi, Fo and Fb are the fluorescence intensities obtained for Aβ aggregation in the presence of inhibitors Aβ1–42 and ThT; in the presence of Aβ1–42 and THT but no inhibitors; and the blanks containing ThT only.

Amino acid sequences for entries named in this document (tags omitted). Residues count along the entry.
UniProt P05067, 672-713 limits assumed: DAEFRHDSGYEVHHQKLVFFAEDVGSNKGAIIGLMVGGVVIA

COc1cc2c(cc1OC)C(=O)C(CC1CCN(Cc3ccccc3)CC1)C2 (stereo not shown) [Donepezil]
Inhibition of Aβ Aggregation (%) Self-Induced: 17.95 ± 0.77%

Reference: PMC6164518 (Marine Drugs, 2018)
